Source: US20200323823A1, “METHODS FOR THE TREATMENT OF DEPRESSION” (Praxis Precision Medicines, Inc., priority 2018, published 2020)
The name of at least one read-out is uncertain.

Test: Randomized, double-blind, placebo-controlled multiple escalating dose study, plasma PK of Compound 1 oral suspension (Cohorts 1-3)
Conditions: Day 14, Mean

Q: Which results are given for `COC[C@@]1(O)CC[C@@]2(C)[C@@H](CC[C@@H]3[C@@H]2CC[C@]2(C)[C@@H](C(=O)Cn4ccnc4)CC[C@@H]32)C1` [Compound 1, 3α-Hydroxy-3β-methoxymethyl-21-(1′-imidazolyl)-5α-pregnan-20-one]?
A: Vz/F (Cohort 1, 15.0 mg QD oral): 655.194 L; Vz/F (Cohort 2, 30.0 mg QD oral): 570.566 L; Vz/F (Cohort 3, 60.0 mg QD oral): 574.599 L
